The target in assay [1] is HBV core protein (HBc 1-183), wild type, serotype ayw (Hepatitis B virus (serotype ayw)) (UniProt P03146). Description: co-IP; lysates of cells co-transfected with the HBV replicon pCHT-9/3091 (wild type or core mutant) and an HGS expression vector (2:1; HuH-7, day 3 post-transfection for Fig 7A); precipitated with anti-HBc antibody and protein A/G Dynabeads, 4°C; IP buffer 20 mM Tris pH 8.0, 120 mM NaCl, 0.2% NP-40, 1 mM EDTA, 50 mM NaF, 1 mM Na3VO4; SDS-PAGE. (A replicon is a self-replicating genome or part of one, used to study replication in cells.)

Protein sequences, listed by entry. Tags and fused reporters are not part of them. Lines headed by an entry give the natural chain unless they say otherwise; changes in a name come on top. Chains listed by the source or under a name are the forms on record and can include a tag or linker. Residues count along the entry.
UniProt P03146: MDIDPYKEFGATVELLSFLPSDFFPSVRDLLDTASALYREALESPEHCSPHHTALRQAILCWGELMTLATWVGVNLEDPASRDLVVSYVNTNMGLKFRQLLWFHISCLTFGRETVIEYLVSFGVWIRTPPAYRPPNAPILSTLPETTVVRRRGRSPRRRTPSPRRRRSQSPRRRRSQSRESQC
HBc 1-147 (ARD-truncated HBV core protein, N-terminal capsid assembly domain) (Hepatitis B virus (serotype ayw)): residues 1-147 of P03146
HGS dUIM (UIM-truncated HGS, deletion of aa 257-277) (O14964-1, form named): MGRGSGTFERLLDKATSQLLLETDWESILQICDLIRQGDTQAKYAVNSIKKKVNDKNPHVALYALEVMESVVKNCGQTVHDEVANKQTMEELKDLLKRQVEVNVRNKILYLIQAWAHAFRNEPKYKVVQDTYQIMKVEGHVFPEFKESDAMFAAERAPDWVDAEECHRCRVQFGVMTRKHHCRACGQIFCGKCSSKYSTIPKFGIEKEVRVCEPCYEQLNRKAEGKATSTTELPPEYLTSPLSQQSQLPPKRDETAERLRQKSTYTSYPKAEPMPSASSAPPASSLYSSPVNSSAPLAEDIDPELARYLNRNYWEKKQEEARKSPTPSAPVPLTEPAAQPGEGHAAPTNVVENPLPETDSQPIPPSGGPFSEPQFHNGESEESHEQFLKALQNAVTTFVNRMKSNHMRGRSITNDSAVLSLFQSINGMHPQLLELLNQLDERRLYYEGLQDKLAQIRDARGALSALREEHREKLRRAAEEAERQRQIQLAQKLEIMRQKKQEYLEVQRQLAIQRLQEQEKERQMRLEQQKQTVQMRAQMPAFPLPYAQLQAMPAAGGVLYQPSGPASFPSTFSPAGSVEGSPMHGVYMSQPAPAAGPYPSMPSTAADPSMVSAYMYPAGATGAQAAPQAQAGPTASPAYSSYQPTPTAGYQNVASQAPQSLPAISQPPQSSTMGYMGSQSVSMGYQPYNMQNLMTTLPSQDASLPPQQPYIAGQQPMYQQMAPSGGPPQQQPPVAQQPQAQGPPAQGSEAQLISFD

Assay [2] concerns the target HBc 1-147 (ARD-truncated HBV core protein, N-terminal capsid assembly domain) (Hepatitis B virus (serotype ayw)) (UniProt P03146). The description is as above.

These are yes or no findings as the source states them, for the method shown. Binding seen in cells or lysates may run through a third protein. Some entries that bind do so weakly or less than the wild type.

“HGS (HRS, hepatocyte growth factor-regulated tyrosine kinase substrate), wild type, Myc-Flag-tagged (from UniProt O14964-1 1-777)”: the binding result in assay [1] and in assay [2] was “binds” in each case.

For the substance “HGS dUIM (UIM-truncated HGS, deletion of aa 257-277) (from UniProt O14964-1 1-777)”, the binding result in assay [1] and in assay [2] was “binds” throughout.
